Source: the supplement of paper PMC10849652
Some of the results follow. Residues, ends and D or L forms follow the SMILES beside them. *: point of attachment. Cbz = O=C(OCc1ccccc1)*

The chains behind the UniProt entries cited, without tags or fusion partners. Where a name states a change or a piece, a line headed by the entry shows the natural chain unless it says otherwise.
UniProt Q5VTE0, whole entry, looked up: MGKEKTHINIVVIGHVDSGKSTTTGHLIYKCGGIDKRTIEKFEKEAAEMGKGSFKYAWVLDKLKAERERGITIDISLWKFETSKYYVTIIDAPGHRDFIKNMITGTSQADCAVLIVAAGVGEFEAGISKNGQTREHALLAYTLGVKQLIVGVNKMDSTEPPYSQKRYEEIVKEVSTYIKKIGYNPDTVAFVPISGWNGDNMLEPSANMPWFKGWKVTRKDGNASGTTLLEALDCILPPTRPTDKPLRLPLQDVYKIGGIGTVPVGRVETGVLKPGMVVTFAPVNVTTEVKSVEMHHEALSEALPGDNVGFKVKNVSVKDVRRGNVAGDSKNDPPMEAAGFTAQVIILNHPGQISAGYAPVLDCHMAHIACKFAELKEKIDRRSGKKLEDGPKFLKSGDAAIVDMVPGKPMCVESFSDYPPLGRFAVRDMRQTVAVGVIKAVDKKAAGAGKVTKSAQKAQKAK
UniProt Q99613, whole entry, looked up: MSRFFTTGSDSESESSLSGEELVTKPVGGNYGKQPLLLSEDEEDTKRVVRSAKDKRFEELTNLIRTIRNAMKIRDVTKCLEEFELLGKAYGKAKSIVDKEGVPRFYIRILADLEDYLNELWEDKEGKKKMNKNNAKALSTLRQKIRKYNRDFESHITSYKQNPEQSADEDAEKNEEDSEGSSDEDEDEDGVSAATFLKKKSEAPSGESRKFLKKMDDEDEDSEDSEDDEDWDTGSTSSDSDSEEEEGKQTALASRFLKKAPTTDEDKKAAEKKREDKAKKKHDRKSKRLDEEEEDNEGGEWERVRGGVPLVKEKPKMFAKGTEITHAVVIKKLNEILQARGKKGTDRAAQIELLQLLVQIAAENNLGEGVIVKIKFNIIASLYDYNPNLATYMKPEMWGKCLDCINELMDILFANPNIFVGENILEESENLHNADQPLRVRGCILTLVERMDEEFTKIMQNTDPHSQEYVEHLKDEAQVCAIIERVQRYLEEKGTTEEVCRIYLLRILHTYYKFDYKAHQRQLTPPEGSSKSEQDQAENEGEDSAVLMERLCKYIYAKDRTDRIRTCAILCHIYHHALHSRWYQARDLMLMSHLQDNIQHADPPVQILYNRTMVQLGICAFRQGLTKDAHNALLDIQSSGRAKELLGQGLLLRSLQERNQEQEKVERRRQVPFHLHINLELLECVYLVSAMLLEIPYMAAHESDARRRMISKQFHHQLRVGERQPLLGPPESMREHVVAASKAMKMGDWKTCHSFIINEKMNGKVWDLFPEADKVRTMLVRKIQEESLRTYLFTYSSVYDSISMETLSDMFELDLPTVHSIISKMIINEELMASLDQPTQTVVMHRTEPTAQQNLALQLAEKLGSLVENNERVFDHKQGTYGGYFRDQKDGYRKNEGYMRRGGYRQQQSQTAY
UniProt P06733, whole entry, looked up: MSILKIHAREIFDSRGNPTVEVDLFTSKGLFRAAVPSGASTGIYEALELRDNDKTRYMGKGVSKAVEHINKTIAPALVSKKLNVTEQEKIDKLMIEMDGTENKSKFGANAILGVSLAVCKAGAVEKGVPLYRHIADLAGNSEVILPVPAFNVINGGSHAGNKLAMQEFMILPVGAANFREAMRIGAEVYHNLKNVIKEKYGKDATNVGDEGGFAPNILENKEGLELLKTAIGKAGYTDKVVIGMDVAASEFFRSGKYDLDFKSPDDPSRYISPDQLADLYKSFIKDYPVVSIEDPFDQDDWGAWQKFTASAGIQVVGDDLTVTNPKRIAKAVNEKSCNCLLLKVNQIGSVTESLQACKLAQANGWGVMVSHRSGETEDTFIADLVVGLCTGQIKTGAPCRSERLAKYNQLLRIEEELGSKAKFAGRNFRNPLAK
UniProt P38919, whole entry, looked up: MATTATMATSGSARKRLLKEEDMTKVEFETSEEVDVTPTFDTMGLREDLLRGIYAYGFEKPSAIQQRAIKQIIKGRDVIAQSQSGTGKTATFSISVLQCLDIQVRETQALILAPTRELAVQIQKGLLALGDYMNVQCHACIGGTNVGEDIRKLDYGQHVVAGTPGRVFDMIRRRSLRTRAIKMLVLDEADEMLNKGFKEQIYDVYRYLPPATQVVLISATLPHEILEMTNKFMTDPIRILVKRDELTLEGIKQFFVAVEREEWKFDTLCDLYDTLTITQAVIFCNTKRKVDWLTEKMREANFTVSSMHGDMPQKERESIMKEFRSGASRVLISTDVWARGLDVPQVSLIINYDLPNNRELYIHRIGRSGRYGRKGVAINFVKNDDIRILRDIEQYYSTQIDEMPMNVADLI
UniProt Q09472, whole entry, looked up: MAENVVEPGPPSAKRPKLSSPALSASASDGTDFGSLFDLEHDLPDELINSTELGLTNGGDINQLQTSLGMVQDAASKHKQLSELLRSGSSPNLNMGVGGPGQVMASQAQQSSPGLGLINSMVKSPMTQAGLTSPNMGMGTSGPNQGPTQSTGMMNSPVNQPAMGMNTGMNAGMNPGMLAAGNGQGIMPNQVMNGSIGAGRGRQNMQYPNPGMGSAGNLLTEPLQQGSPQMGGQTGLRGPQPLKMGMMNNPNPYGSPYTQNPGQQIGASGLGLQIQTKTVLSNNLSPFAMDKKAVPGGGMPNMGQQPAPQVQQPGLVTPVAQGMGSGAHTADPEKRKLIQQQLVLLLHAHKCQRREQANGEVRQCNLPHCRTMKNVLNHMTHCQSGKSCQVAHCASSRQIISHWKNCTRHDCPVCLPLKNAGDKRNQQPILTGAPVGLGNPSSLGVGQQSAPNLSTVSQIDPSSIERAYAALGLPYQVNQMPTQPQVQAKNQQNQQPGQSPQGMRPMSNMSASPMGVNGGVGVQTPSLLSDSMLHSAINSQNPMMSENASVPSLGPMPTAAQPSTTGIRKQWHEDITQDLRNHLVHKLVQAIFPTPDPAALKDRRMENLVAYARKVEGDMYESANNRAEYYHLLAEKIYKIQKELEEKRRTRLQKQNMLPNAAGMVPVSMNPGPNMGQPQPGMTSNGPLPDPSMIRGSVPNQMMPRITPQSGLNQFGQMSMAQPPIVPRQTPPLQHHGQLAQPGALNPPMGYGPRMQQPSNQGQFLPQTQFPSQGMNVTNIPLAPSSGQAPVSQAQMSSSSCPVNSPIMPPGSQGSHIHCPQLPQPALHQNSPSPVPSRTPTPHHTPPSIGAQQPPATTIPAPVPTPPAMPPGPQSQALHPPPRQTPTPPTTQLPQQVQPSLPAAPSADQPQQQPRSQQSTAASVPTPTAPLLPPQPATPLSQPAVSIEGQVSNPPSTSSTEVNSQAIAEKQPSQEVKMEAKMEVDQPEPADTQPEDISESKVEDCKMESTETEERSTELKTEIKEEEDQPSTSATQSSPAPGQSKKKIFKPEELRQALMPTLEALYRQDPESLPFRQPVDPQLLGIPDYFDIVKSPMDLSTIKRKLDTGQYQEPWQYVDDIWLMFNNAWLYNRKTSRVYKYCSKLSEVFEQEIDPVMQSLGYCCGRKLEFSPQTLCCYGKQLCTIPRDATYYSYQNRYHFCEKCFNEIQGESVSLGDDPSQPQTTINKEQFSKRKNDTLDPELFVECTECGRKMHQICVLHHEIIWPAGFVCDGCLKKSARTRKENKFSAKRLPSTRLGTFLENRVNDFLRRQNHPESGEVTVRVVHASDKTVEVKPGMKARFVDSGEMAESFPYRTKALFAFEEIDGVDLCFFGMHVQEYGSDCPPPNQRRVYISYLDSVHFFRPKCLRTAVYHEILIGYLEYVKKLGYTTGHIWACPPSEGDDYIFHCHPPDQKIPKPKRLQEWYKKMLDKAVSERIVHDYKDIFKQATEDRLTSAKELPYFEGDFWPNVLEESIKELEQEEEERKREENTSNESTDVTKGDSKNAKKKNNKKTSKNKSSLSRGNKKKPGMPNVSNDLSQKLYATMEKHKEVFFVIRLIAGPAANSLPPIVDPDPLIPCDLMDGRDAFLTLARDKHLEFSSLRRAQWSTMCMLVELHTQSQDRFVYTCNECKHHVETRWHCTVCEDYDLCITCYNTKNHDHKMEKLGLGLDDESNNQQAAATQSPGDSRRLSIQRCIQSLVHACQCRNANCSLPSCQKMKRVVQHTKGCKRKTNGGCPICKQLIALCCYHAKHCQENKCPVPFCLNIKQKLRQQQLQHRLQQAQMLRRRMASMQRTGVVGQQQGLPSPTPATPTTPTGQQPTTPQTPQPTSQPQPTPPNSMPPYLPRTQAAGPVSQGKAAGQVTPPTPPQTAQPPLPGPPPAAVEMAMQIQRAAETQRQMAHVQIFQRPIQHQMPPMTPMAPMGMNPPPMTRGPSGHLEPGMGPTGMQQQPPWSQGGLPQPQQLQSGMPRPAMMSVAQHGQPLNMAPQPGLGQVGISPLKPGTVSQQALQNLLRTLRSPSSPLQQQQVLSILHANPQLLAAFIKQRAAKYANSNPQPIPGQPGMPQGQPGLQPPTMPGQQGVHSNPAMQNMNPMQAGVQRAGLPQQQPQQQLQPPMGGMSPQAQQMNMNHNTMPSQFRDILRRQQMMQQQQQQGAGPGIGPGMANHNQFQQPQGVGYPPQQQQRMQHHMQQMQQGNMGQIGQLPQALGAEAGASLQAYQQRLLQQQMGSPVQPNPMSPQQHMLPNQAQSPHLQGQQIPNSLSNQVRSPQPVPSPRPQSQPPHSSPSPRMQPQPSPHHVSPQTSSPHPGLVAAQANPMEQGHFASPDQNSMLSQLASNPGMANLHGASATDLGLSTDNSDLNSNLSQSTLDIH
UniProt Q7L2H7, whole entry, looked up: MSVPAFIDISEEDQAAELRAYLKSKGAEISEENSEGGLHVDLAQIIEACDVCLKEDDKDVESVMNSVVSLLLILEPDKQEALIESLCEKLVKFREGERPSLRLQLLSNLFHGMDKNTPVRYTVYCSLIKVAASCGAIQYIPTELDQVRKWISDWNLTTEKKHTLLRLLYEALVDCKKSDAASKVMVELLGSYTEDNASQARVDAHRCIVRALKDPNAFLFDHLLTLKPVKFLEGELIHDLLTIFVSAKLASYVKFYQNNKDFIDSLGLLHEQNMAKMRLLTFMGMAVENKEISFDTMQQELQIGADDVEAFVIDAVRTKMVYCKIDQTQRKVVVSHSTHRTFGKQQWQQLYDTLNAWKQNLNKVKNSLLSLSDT
UniProt P98172: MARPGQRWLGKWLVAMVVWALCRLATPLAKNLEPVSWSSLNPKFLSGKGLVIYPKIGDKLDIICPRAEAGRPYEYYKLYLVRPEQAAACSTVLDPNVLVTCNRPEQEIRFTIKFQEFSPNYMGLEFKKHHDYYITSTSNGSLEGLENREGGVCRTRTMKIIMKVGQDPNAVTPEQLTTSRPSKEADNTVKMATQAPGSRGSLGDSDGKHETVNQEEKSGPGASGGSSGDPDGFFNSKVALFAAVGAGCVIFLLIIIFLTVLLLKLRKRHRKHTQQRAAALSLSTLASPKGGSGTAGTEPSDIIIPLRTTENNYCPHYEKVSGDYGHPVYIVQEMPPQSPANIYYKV
UniProt Q8N9N8: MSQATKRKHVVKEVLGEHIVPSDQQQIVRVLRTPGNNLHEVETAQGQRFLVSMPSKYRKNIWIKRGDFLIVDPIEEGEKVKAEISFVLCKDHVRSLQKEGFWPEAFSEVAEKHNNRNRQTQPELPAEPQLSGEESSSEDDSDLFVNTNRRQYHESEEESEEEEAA
UniProt Q15029: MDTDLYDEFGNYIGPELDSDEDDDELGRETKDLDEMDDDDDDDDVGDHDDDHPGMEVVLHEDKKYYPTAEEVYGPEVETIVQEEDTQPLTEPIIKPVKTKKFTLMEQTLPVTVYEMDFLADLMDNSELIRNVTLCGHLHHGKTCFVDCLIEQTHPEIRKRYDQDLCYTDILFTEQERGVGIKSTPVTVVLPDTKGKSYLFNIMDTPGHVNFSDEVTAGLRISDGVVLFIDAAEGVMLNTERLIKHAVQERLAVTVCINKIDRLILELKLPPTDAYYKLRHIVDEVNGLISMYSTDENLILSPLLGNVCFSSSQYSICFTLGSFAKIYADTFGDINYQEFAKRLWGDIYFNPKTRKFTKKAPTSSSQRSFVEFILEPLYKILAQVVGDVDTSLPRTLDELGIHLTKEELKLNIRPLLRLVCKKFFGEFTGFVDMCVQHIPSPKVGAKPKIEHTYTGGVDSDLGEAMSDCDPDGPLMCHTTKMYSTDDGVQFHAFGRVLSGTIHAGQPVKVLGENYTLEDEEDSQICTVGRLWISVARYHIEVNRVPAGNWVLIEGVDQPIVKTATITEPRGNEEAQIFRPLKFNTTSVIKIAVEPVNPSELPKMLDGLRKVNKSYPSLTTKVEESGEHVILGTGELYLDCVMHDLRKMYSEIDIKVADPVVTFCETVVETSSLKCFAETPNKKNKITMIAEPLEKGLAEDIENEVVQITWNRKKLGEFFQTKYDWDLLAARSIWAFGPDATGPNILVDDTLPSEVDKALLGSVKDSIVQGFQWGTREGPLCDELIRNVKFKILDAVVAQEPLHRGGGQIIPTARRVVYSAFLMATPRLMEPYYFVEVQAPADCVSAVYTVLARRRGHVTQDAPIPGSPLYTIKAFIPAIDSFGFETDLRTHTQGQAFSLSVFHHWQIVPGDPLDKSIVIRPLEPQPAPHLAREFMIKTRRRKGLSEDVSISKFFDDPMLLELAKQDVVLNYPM
UniProt Q9NPA8: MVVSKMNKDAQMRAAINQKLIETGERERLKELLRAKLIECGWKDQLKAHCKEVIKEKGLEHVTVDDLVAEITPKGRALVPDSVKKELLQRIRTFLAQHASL

How the values were obtained:
Experiment in all cases: log2 fold change, soluble protein after heating vs DMSO (PISA); higher = thermal stabilisation; K562 cells, 10 uM, 30 min; active = over 0.2 and 3.5 SD of the protein, either way, in both replicates (recomputed)
erlotinib = compound: C#Cc1cccc(Nc2ncnc3cc(OCCOC)c(OCCOC)cc23)c1 [erlotinib]
Outline: (§1)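 Quantification of soluble protein used TMTpro 16plex LC-MS/MS, with channel sums equalised. Samples were the supernatant after 21,000xg for 90 min of pooled aliquots from K562 cells (2×10^6 cells/mL) treated with 10 μM compound for 30 min, heated for 3 min over 48°C-58°C, and extracted in PBS with 0.5% NP-40 at 4°C. Values, from duplicates, describe thermal stability against control samples on a log2 fold-change scale.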

[1] = compound: C/C(=N\NC(=O)C1=CC(=CC=C1)S(=O)(=O)N2CCOCC2)/C3=C(C=CC(=C3)Cl)O
Outline: as §1

[2] = compound: C1=CC(=C(C=C1Cl)C2=NC3=NC=CN=C3C(=N2)NC4=CC=NC=C4)F
Outline: as §1

[3] = compound: C1=CC(=CC=C1C2=NC3=C(N2)C=C(C=C3)C(=O)N)OC4=CC=C(C=C4)Cl
Outline: as §1

[4] = compound: C1=CC2=C(C=CC(=C2)/C=C\3/C(=O)NC(=NCC4=CC=CS4)S3)N=C1
Outline: as §1

[5] = compound: C1=CC2=NC=CN=C2C=C1/C=C/3\C(=O)NC(=O)S3
Outline: as §1

[6] = compound: C1=CC=C(C=C1)C2=NC(=C(N2)C3=CC=NC=C3)C4=CC(=C(C=C4)Cl)O
Outline: as §1

[7] = compound: C1=CC=C2C(=C1)C3=NNC4=CC=CC(=C43)C2=O
Outline: as §1

[8] = compound: C1CCN(C1)C(=O)NC2=CC=CC(=C2)NC3=NC=C(C(=N3)NCCC4=CN=CN4)Br
Outline: as §1

[9] = compound: C1CN(CCC1(CC2=CC=C(C=C2)Cl)N)C3=NC=NC4=C3C=CN4
Outline: as §1

IRAK-1-4 Inhibitor I = compound: C1COCCN1CCN2C3=CC=CC=C3N=C2NC(=O)C4=CC(=CC=C4)[N+](=O)[O-] [IRAK-1-4 Inhibitor I]
Outline: as §1

ibrutinib = compound: C=CC(=O)N1CCC[C@@H](n2nc(-c3ccc(Oc4ccccc4)cc3)c3c(N)ncnc32)C1 [ibrutinib]
Outline: as §1

[10] = compound: CC(=O)c1cnc2ccc(-c3cc(Cl)c(O)c(Cl)c3)nc2c1N[C@H]1CC[C@H](CN(C)C)CC1
Outline: as §1

ralimetinib = compound: CC(C)(C)Cn1c(N)nc2ccc(-c3[nH]c(C(C)(C)C)nc3-c3ccc(F)cc3)nc21 [ralimetinib]
Outline: as §1

[11] = compound: CC(C)(O)CC(=O)NCCn1ccc2ncnc(Nc3ccc(Oc4cccc(C(F)(F)F)c4)c(Cl)c3)c21
Outline: as §1

[12] = compound: CC(C)C1=C2N=C(C=C(N2N=C1)NCC3=CC=CC=C3)NCCCCCCN
Outline: as §1

[13] = compound: CC(C)C[C@@H](C=O)NC(=O)[C@H](CC(C)C)NC(=O)[C@H](CC(C)C)NC(=O)OCc1ccccc1
Outline: as §1

pinometostat = compound: CC(C)N(C[C@H]1O[C@@H](n2cnc3c(N)ncnc32)[C@H](O)[C@@H]1O)[C@H]1C[C@@H](CCc2nc3cc(C(C)(C)C)ccc3[nH]2)C1 [pinometostat]
Outline: as §1

[14] = compound: CC1=C(C(CC(=O)N1)C2=CC=C(C=C2)C(F)(F)F)C(=O)NC3=C(C=C4C(=C3)C=NN4)F
Outline: as §1

[15] = compound: CC1=C(C2=C(C=C1)C(=O)C3=CC=CC=C3N2CCCN)C
Outline: as §1

Measured: log2 fold change

EIF4B (UniProt P23588)
inactive: erlotinib 0.033 | [1] -0.013 | [2] 0.005 | [3] 0.027 | [4] -0.042 | [5] -0.003 | [6] 0.007 | [7] 0.069 | [8] 0.014 | [9] 0.037 | IRAK-1-4 Inhibitor I -0.01 | ibrutinib -0.026 | [10] -0.006 | ralimetinib 0.039 | [11] 0.003 | [12] 0.081 | [13] 0.048 | pinometostat -0.06 | [14] -0.012 | [15] 0.006

ELAVL1 isoform 2 (UniProt Q15717)
inactive: erlotinib -0.101 | [1] -0.084 | [2] -0.296 | [3] 0.047 | [4] -0.128 | [5] 0.054 | [6] -0.065 | [7] 0.084 | [8] 0.022 | [9] -0.053 | IRAK-1-4 Inhibitor I -0.119 | ibrutinib -0.019 | [10] 0.025 | ralimetinib 0.184 | [11] 0.034 | [12] -0.001 | [13] 0.263 | pinometostat 0.261 | [14] -0.019 | [15] -0.042

EMG1 (UniProt Q92979)
inactive: erlotinib -0.096 | [1] -0.045 | [2] -0.145 | [3] 0.07 | [4] -0.009 | [5] 0.012 | [6] 0.082 | [7] -0.001 | [8] -0.03 | [9] -0.034 | IRAK-1-4 Inhibitor I -0.062 | ibrutinib 0.046 | [10] 0.054 | ralimetinib 0.097 | [11] 0.041 | [12] 0.11 | [13] 0.028 | pinometostat 0.046 | [14] -0.018 | [15] 0.104

EEF1A1P5 (UniProt Q5VTE0)
inactive: erlotinib 0.027 | [1] -0.009 | [2] 0.074 | [3] 0.005 | [4] 0.009 | [5] 0.004 | [6] 0.038 | [7] 0.005 | [8] 0.109 | [9] 0.082 | IRAK-1-4 Inhibitor I 0.029 | ibrutinib -0.017 | [10] -0.02 | ralimetinib -0.013 | [11] -0.03 | [12] -0.009 | [13] 0.005 | pinometostat -0.028 | [14] 0.007 | [15] -0.082

EIF3C (UniProt Q99613)
inactive: erlotinib 0.056 | [1] 0.044 | [2] -0.057 | [3] -0.024 | [4] 0.026 | [5] 0.007 | [6] -0.047 | [7] -0.025 | [8] -0.005 | [9] -0.147 | IRAK-1-4 Inhibitor I -0.195 | ibrutinib -0.056 | [10] 0.045 | ralimetinib 0.051 | [11] -0.007 | [12] -0.245 | [13] 0.077 | pinometostat 0.174 | [14] 0.053 | [15] -0.077

Two successive records already listed, for reference:
EIF4B (UniProt P23588)
inactive: erlotinib 0.033 | [1] -0.013 | [2] 0.005 | [3] 0.027 | [4] -0.042 | [5] -0.003 | [6] 0.007 | [7] 0.069 | [8] 0.014 | [9] 0.037 | IRAK-1-4 Inhibitor I -0.01 | ibrutinib -0.026 | [10] -0.006 | ralimetinib 0.039 | [11] 0.003 | [12] 0.081 | [13] 0.048 | pinometostat -0.06 | [14] -0.012 | [15] 0.006

ELAVL1 isoform 2 (UniProt Q15717)
inactive: erlotinib -0.101 | [1] -0.084 | [2] -0.296 | [3] 0.047 | [4] -0.128 | [5] 0.054 | [6] -0.065 | [7] 0.084 | [8] 0.022 | [9] -0.053 | IRAK-1-4 Inhibitor I -0.119 | ibrutinib -0.019 | [10] 0.025 | ralimetinib 0.184 | [11] 0.034 | [12] -0.001 | [13] 0.263 | pinometostat 0.261 | [14] -0.019 | [15] -0.042

(listing goes on)

EFHD2 (UniProt Q96C19)
inactive: erlotinib -0.028 | [1] 0.033 | [2] 0.038 | [3] -0.041 | [4] 0.026 | [5] 0.033 | [6] -0.059 | [7] 0.104 | [8] 0.069 | [9] -0.196 | IRAK-1-4 Inhibitor I 0 | ibrutinib -0.06 | [10] 0.059 | ralimetinib -0.089 | [11] -0.079 | [12] -0.179 | [13] -0.027 | pinometostat -0.012 | [14] -0.013 | [15] -0.161

ENO1 (UniProt P06733)
inactive: erlotinib 0.04 | [1] -0.006 | [2] 0.018 | [3] -0.008 | [4] 0.014 | [5] -0.01 | [6] -0.039 | [7] -0.005 | [8] 0.028 | [9] 0.037 | IRAK-1-4 Inhibitor I 0.038 | ibrutinib -0.023 | [10] -0.004 | ralimetinib -0.011 | [11] 0.04 | [12] 0.056 | [13] 0.023 | pinometostat -0.039 | [14] 0.035 | [15] 0

EIF4A3 (UniProt P38919)
inactive: erlotinib -0.026 | [1] 0.01 | [2] 0.039 | [3] -0.003 | [4] 0.021 | [5] -0.012 | [6] -0.012 | [7] -0.004 | [8] -0.027 | [9] 0.001 | IRAK-1-4 Inhibitor I 0 | ibrutinib -0.017 | [10] 0.002 | ralimetinib -0.046 | [11] -0.017 | [12] 0.075 | [13] 0.003 | pinometostat 0.005 | [14] -0.021 | [15] 0.138

EP300 (UniProt Q09472)
inactive: erlotinib 0.019 | [1] 0.017 | [2] 0.001 | [3] 0.047 | [4] 0.076 | [5] 0.041 | [6] -0.062 | [7] -0.026 | [8] -0.036 | [9] 0.068 | IRAK-1-4 Inhibitor I 0.128 | ibrutinib 0.048 | [10] -0.062 | ralimetinib -0.145 | [11] -0.006 | [12] -0.005 | [13] 0.064 | pinometostat -0.056 | [14] 0.005 | [15] 0.088

EIF3M (UniProt Q7L2H7)
inactive: erlotinib -0.033 | [1] 0.074 | [2] 0.007 | [3] -0.007 | [4] -0.005 | [5] 0.036 | [6] 0.095 | [7] 0.034 | [8] -0.017 | [9] -0.081 | IRAK-1-4 Inhibitor I -0.058 | ibrutinib 0.007 | [10] 0.018 | ralimetinib 0.113 | [11] -0.071 | [12] -0.133 | [13] -0.011 | pinometostat 0.048 | [14] 0.056 | [15] -0.07

EFNB1 (UniProt P98172)
inactive: erlotinib 0.039 | [1] 0.023 | [2] 0.113 | [3] 0.015 | [4] -0.106 | [5] -0.038 | [6] 0.087 | [7] -0.028 | [8] -0.038 | [9] 0.133 | IRAK-1-4 Inhibitor I -0.099 | ibrutinib 0.031 | [10] 0.003 | ralimetinib 0.025 | [11] -0.194 | [12] 0.05 | [13] -0.125 | pinometostat 0.133 | [14] 0.062 | [15] 0.055

EIF1AD (UniProt Q8N9N8)
inactive: erlotinib 0.004 | [1] -0.016 | [2] 0.016 | [3] -0.009 | [4] 0.03 | [5] 0.047 | [6] -0.05 | [7] -0.011 | [8] -0.02 | [9] 0.027 | IRAK-1-4 Inhibitor I 0.039 | ibrutinib -0.003 | [10] -0.002 | ralimetinib -0.077 | [11] -0.015 | [12] 0.012 | [13] 0.044 | pinometostat -0.006 | [14] 0.009 | [15] -0.055

EFTUD2 (UniProt Q15029)
inactive: erlotinib -0.031 | [1] -0.01 | [2] -0.01 | [3] 0.024 | [4] -0.037 | [5] 0.033 | [6] -0.031 | [7] -0.043 | [8] -0.011 | [9] 0.052 | IRAK-1-4 Inhibitor I 0.022 | ibrutinib 0.023 | [10] 0.047 | ralimetinib -0.03 | [11] 0.032 | [12] 0.106 | [13] -0.008 | pinometostat -0.029 | [14] 0.018 | [15] 0.004

ENY2 (UniProt Q9NPA8)
inactive: erlotinib -0.024 | [1] 0 | [2] 0.039 | [3] 0.035 | [4] 0.052 | [5] 0.01 | [6] -0.027 | [7] -0.059 | [8] 0.003 | [9] -0.078 | IRAK-1-4 Inhibitor I -0.017 | ibrutinib 0.002 | [10] -0.01 | ralimetinib -0.075 | [11] -0.006 | [12] 0.044 | [13] -0.058 | pinometostat -0.024 | [14] 0.04 | [15] 0.051

EML2 isoform 3 (UniProt O95834)
inactive: erlotinib -0.087 | [1] 0.065 | [2] 0.062 | [3] 0.036 | [4] 0.02 | [5] 0.012 | [6] 0.05 | [7] 0.027 | [8] 0.031 | [9] -0.014 | IRAK-1-4 Inhibitor I 0.03 | ibrutinib 0.01 | [10] -0.015 | ralimetinib 0.015 | [11] -0.019 | [12] -0.033 | [13] -0.019 | pinometostat 0.008 | [14] 0.001 | [15] 0.08

EIF2B5 (UniProt Q13144)
inactive: erlotinib -0.016 | [1] 0.062 | [2] -0.044 | [3] 0.065 | [4] 0.046 | [5] -0.01 | [6] -0.004 | [7] -0.038 | [8] 0.111 | [9] -0.102 | IRAK-1-4 Inhibitor I -0.012 | ibrutinib -0.002 | [10] 0.02 | ralimetinib 0.02 | [11] -0.018 | [12] -0.078 | [13] 0.023 | pinometostat 0.077 | [14] -0.015 | [15] 0.04
